Measurements published in patent US20090170765A1.
These are yes or no findings as the source states them, for the method shown. Some results given as binding are weak or reduced against the parent protein; the word gives no strength.

Sequences of proteins named here, by UniProt entry; tags and fusion partners are left off.
UniProt Q14974: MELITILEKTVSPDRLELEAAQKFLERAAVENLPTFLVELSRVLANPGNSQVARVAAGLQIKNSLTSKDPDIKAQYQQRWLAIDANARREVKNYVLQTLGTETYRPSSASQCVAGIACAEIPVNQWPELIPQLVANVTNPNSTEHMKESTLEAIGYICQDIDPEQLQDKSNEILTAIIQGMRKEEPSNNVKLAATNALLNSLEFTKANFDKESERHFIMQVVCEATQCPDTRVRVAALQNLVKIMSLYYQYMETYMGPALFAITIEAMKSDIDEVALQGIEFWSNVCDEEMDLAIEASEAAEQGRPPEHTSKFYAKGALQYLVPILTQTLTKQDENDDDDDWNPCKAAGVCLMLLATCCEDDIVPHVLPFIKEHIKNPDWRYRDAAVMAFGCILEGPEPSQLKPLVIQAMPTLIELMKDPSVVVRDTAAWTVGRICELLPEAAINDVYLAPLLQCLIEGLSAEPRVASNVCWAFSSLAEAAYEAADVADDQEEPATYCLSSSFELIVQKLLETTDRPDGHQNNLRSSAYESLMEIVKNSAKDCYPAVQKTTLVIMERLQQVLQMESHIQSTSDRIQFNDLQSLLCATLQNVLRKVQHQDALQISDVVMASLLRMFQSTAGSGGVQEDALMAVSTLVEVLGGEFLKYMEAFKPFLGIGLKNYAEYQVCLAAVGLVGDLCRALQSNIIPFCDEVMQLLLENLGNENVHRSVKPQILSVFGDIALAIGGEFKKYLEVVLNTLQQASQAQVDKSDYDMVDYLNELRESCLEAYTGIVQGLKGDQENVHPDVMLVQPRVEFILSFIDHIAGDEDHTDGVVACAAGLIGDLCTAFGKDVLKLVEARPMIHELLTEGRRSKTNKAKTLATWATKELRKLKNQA

Columns and labels:
importin β1 [1] = biological target: importin β1 (UniProt Q14974); assay: peptide competition assay, peptide added to the medium
importin β1 [2] = biological target: importin β1 (UniProt Q14974); assay: peptide competition in neonatal rat cardiomyocytes stimulated with Ang II

Which results are given for AAVALLPAVLLALLAKQECKIKYSERV?
binding (importin β1 [1]): binds; binding (importin β1 [2]): binds
